Values joined by “and” are separate entries in the source; they are usually repeats but may differ in a detail not shown here. Equal entries are not always repeated. Where two headings read alike, the source gives them in different places. Further values from the same series stand in other lists.
Target: M^pro (Severe acute respiratory syndrome coronavirus 2, UniProt P0DTD1)
Assay type: biochemical
Conditions: triplicate wells
Protocol: Buffer: 20 mM Tris, 0.1 mM EDTA, 1 mM DTT, 200 mM NaCl pH = 7.5. For the dilution assay Nirmatrelvir[21] was used as a reversible control and LM188[54] as an irreversible control (Fig. 10).
The incubation was done at RT for 30 min in assay buffer. DMSO was used as a control. After incubation the Enzyme/Inhibitor (or DMSO) mixtures were diluted 100-fold in assay buffer.
The preincubation was done in assay buffer (20 mM Tris, 0.1 mM EDTA, 1 mM DTT, 200 mM NaCl, pH = 7.5), at RT for 30 min. After incubation the mixtures were diluted […]
proteolytic activity of the enzyme was measured as described for the enzymatic assays using the […]
activity was measured over 1 h.
Inhibition assay58. Trypsin: Enzyme: bovine trypsin purchased from Sigma-Aldrich (St. Louis, […]
Substrate: Cbz-FR-AMC purchased from Bachem (Bubendorf, Switzerland), [Substrate]: 40 µM […]
The activity against bovine trypsin was tested at 20 µM inhibitor concentration. […]

COc1cccc2[nH]c(C(=O)N[C@@H](CC(C)C)C(=O)N[C@H](/C=C/S(=O)(=O)c3ccccc3)C[C@@H]3CCNC3=O)cc12 [LM188, reference compound]
Fluorescence reading (progress curve) (Time 0 s): 258 and 243 and 247
Fluorescence reading (progress curve) (Time 30.009 s): 258 and 247 and 250
Fluorescence reading (progress curve) (Time 60.029 s): 253 and 248
Fluorescence reading (progress curve) (Time 90.04 s): 257 and 248 and 252
Fluorescence reading (progress curve) (Time 120.057 s): 254 and 248 and 250
Fluorescence reading (progress curve) (Time 150.063 s): 254 and 244 and 250
Fluorescence reading (progress curve) (Time 480.18 s): 248
Fluorescence reading (progress curve) (Time 510.193 s): 253 and 244 and 250
Fluorescence reading (progress curve) (Time 540.2 s): 250 and 246
Fluorescence reading (progress curve) (Time 570.216 s): 253 and 244
Fluorescence reading (progress curve) (Time 600.232 s): 252 and 246 and 245
Fluorescence reading (progress curve) (Time 630.25 s): 253 and 242 and 246
Fluorescence reading (progress curve) (Time 660.257 s): 250 and 244 and 246
Fluorescence reading (progress curve) (Time 690.266 s): 252 and 245 and 248
Fluorescence reading (progress curve) (Time 720.275 s): 255 and 242 and 244
Fluorescence reading (progress curve) (Time 750.289 s): 255 and 243 and 248
Fluorescence reading (progress curve) (Time 780.305 s): 249 and 242 and 246
Fluorescence reading (progress curve) (Time 810.312 s): 254 and 240 and 244
Fluorescence reading (progress curve) (Time 840.326 s): 254 and 240 and 244
Fluorescence reading (progress curve) (Time 870.344 s): 254 and 242 and 244
Fluorescence reading (progress curve) (Time 900.356 s): 255 and 242 and 245
Fluorescence reading (progress curve) (Time 930.361 s): 256 and 239 and 245
Fluorescence reading (progress curve) (Time 960.372 s): 254 and 242 and 247
Fluorescence reading (progress curve) (Time 990.388 s): 250 and 243 and 244
Fluorescence reading (progress curve) (Time 1020.4 s): 255 and 239 and 241
Fluorescence reading (progress curve) (Time 1050.42 s): 256 and 241 and 242
Fluorescence reading (progress curve) (Time 1080.42 s): 251 and 238 and 243
Fluorescence reading (progress curve) (Time 1110.44 s): 252 and 237 and 242
Fluorescence reading (progress curve) (Time 1140.45 s): 253 and 237 and 243
Fluorescence reading (progress curve) (Time 1170.46 s): 254 and 239 and 241
Fluorescence reading (progress curve) (Time 1200.47 s): 253 and 238 and 240
Fluorescence reading (progress curve) (Time 1230.49 s): 254 and 239 and 243
Fluorescence reading (progress curve) (Time 1260.5 s): 252 and 239 and 242
Fluorescence reading (progress curve) (Time 1290.52 s): 252 and 238 and 239
Fluorescence reading (progress curve) (Time 1320.53 s): 249 and 235 and 241
Fluorescence reading (progress curve) (Time 1350.55 s): 255 and 237 and 243
Fluorescence reading (progress curve) (Time 1380.55 s): 254 and 235 and 241
Fluorescence reading (progress curve) (Time 1410.56 s): 254 and 236 and 241
Fluorescence reading (progress curve) (Time 1440.57 s): 252 and 233 and 241
Fluorescence reading (progress curve) (Time 1470.58 s): 251 and 238 and 239
Fluorescence reading (progress curve) (Time 1500.6 s): 253 and 235 and 240
Fluorescence reading (progress curve) (Time 1530.61 s): 253 and 236 and 241
Fluorescence reading (progress curve) (Time 1560.62 s): 251 and 235 and 243
Fluorescence reading (progress curve) (Time 1590.64 s): 254 and 238 and 240
Fluorescence reading (progress curve) (Time 1620.64 s): 254 and 235 and 238
Fluorescence reading (progress curve) (Time 1650.65 s): 250 and 235 and 241
Fluorescence reading (progress curve) (Time 1680.66 s): 254 and 233 and 241
Fluorescence reading (progress curve) (Time 1710.68 s): 254 and 234 and 238
Fluorescence reading (progress curve) (Time 1740.69 s): 254 and 237 and 238
Fluorescence reading (progress curve) (Time 1770.7 s): 253 and 235 and 240
Fluorescence reading (progress curve) (Time 1800.72 s): 254 and 232 and 240
Fluorescence reading (progress curve) (Time 1830.73 s): 252 and 232 and 238
Fluorescence reading (progress curve) (Time 1860.74 s): 249 and 231 and 241
Fluorescence reading (progress curve) (Time 1890.75 s): 254 and 230 and 241
Fluorescence reading (progress curve) (Time 1920.77 s): 251 and 230 and 237
Fluorescence reading (progress curve) (Time 1950.78 s): 250 and 233 and 239
Fluorescence reading (progress curve) (Time 1980.8 s): 251 and 230 and 240
Fluorescence reading (progress curve) (Time 2010.81 s): 255 and 231 and 237
Fluorescence reading (progress curve) (Time 2040.83 s): 251 and 230 and 238
Fluorescence reading (progress curve) (Time 2070.84 s): 250 and 231 and 236
Fluorescence reading (progress curve) (Time 2100.86 s): 251 and 228 and 238
Fluorescence reading (progress curve) (Time 2130.86 s): 248 and 230 and 238
Fluorescence reading (progress curve) (Time 2160.87 s): 250 and 229 and 238
Fluorescence reading (progress curve) (Time 2190.89 s): 254 and 228 and 241
Fluorescence reading (progress curve) (Time 2220.91 s): 253 and 230 and 237
Fluorescence reading (progress curve) (Time 2250.92 s): 252 and 227 and 237
Fluorescence reading (progress curve) (Time 2280.93 s): 252 and 227 and 235
Fluorescence reading (progress curve) (Time 2310.95 s): 255 and 227 and 236
Fluorescence reading (progress curve) (Time 2340.96 s): 253 and 225 and 239
Fluorescence reading (progress curve) (Time 2370.96 s): 252 and 226 and 240
Fluorescence reading (progress curve) (Time 2400.97 s): 251 and 226 and 236
Fluorescence reading (progress curve) (Time 2430.99 s): 250 and 227 and 240
Fluorescence reading (progress curve) (Time 2461.01 s): 251 and 228 and 236
Fluorescence reading (progress curve) (Time 2491.03 s): 250 and 227 and 234
Fluorescence reading (progress curve) (Time 2521.03 s): 249 and 226 and 236
Fluorescence reading (progress curve) (Time 2551.05 s): 250 and 225 and 237
Fluorescence reading (progress curve) (Time 2581.07 s): 253 and 227 and 237
Fluorescence reading (progress curve) (Time 2611.08 s): 249 and 223 and 234
Fluorescence reading (progress curve) (Time 2641.09 s): 247 and 224 and 233
Fluorescence reading (progress curve) (Time 2671.11 s): 253 and 225 and 235
Fluorescence reading (progress curve) (Time 2701.12 s): 253 and 223 and 234
Fluorescence reading (progress curve) (Time 2731.13 s): 251 and 224 and 234
Fluorescence reading (progress curve) (Time 2761.14 s): 248 and 224 and 234
Fluorescence reading (progress curve) (Time 2791.15 s): 252 and 224 and 233
Fluorescence reading (progress curve) (Time 2821.16 s): 247 and 224 and 234
Fluorescence reading (progress curve) (Time 2851.18 s): 249 and 223 and 233
